Measurements from publication PMC3163677.
These are yes or no findings as the source states them, for the method shown. In cells and extracts the contact can be indirect. Some entries that bind do so weakly or less than the wild type.

Protein sequences, listed by entry. Tags and fused reporters are not part of them.
UniProt P14859: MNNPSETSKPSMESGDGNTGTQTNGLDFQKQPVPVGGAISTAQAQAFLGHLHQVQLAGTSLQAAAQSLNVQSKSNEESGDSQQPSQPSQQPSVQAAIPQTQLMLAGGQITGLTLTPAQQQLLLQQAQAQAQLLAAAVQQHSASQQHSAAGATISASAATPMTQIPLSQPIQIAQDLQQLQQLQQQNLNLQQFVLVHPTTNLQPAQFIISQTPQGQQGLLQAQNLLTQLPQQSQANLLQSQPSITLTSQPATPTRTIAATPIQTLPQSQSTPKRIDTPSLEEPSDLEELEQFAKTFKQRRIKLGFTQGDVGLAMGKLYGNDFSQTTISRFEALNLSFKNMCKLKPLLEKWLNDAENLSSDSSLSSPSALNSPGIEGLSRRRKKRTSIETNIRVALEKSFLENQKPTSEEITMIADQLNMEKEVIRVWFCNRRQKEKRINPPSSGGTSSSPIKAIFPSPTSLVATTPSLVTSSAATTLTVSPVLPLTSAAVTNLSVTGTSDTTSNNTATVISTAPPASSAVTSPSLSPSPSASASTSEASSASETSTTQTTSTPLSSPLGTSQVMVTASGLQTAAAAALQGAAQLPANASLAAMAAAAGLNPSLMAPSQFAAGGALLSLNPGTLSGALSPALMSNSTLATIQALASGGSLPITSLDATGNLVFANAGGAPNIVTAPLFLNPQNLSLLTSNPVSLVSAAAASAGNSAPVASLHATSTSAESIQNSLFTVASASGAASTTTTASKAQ
UniProt Q9H1A4: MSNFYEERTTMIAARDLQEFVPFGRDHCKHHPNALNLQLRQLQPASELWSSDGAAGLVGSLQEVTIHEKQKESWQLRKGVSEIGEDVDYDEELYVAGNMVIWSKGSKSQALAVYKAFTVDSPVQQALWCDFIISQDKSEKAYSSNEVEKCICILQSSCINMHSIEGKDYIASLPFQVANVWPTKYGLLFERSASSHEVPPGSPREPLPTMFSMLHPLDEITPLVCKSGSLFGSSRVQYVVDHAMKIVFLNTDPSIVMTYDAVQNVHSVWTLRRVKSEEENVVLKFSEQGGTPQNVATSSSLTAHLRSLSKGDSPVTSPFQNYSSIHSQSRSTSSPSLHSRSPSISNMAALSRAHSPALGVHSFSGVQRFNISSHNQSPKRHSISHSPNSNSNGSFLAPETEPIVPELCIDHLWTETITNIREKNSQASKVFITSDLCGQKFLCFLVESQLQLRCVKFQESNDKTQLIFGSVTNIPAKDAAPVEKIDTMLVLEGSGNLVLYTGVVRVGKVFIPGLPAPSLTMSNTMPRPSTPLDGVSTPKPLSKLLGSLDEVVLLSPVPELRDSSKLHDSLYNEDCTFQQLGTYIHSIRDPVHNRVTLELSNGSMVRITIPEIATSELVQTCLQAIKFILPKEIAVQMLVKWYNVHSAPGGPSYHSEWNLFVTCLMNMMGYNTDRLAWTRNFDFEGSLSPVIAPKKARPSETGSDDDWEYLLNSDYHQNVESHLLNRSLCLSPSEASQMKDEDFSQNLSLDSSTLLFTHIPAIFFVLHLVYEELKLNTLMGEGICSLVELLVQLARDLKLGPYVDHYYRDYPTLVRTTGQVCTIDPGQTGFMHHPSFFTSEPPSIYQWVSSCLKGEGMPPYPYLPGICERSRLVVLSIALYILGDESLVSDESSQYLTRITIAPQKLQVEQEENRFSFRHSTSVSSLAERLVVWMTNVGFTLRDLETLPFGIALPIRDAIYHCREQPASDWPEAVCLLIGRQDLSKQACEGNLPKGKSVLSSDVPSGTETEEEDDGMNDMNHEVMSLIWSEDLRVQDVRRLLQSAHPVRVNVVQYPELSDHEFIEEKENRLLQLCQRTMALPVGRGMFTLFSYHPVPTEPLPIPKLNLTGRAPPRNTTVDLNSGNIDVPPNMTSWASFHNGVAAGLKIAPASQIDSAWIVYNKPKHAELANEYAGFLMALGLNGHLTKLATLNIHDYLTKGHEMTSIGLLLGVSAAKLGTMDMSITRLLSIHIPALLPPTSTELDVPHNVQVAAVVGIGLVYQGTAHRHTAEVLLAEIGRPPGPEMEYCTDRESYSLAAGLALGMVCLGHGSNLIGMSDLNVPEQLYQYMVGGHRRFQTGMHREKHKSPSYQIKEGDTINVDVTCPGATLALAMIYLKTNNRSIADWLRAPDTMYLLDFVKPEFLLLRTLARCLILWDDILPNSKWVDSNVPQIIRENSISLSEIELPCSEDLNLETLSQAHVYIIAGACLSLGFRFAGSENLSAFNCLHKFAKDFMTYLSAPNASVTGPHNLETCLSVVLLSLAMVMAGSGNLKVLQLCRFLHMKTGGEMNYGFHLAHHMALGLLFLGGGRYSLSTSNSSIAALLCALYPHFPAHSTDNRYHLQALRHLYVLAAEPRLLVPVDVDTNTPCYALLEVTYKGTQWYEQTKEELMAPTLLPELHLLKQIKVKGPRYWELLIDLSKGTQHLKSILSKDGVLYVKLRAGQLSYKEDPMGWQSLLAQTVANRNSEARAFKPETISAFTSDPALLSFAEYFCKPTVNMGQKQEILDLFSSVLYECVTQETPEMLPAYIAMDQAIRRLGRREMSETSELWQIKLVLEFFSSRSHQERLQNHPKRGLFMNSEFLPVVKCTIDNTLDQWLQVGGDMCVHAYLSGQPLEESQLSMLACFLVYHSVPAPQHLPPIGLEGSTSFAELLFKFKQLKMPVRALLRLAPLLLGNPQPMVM

Biological target: Oct1 phosphorylated at serine 335 (Oct1^pS335) (human (endogenous in HeLa)) (UniProt P14859)
Experiment: co-IP; whole cell extracts from nocodozole-arrested (18 hr) HeLa cells immunoprecipitated with anti-Oct1^pS335 antibodies; Western blot with anti-Cdk11, anti-APC1 or pan-Oct1; 500 ug extract, 4 ug antibody, IP buffer (50 mM Tris pH 8.0, 20% glycerol, 0.5 mM EDTA, 0.1% NP-40, 1 mM DTT), overnight at 4 C, magnetic beads

binding: binds
Substance: anaphase-promoting complex large subunit APC1 (from UniProt Q9H1A4 1-1944)
